Data as given in PubChem BioAssay AID1259405 (NCATS, 2018)
In all, the deposit lists about 50,000 reagents; below is a part drawn at random. About 4,000 of all reagents (8%) were called active. 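Mouse siRNA library applied to hamster cells; one well for each siRNA.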 No sequences are given here.

Assay: 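Silenced genes that increase secreted GFP made by CHO cells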 (primary screen)
Cells: Chinese hamster CHO-K1 ovary cells with stable secreted eGFP expression
Reagent: single siRNA against mouse genes, 0.8 pmol siRNA per well (2 µl of 400 nM stock)
Duration: 3 days
Measurement: 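Per-well intracellular GFP measured by laser scanning cytometry, plus viability from ATP luminescence, each relative to plate median of non-targeting control wells, in %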
Direction: GFP, % of control: higher = more GFP per well, higher productivity; viability (ATP), % of control: higher = more viable cells (more ATP)
Rule for the call: 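a knock-down is called active if GFP reaches 120% or more of non-targeting control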

Knock-down of Adgrl4 [SID363571387] gave: GFP, % of control 109; viability (ATP), % of control 127; inactive.
For Adgrl4 [SID363571739] the deposit lists GFP, % of control 93.1; viability (ATP), % of control 84.5; inactive.
Adgrl4 [SID363572091] showed GFP, % of control 36; viability (ATP), % of control 73; inactive.
Silencing of Slc4a8 [SID363574703] came out at: GFP, % of control 76.1; viability (ATP), % of control 64.4; inactive.
Silencing of Slc4a8 [SID363575759] gave: GFP, % of control 75.8; viability (ATP), % of control 90.7; inactive.
Knock-down of Slc4a8 [SID363580335] came out at: GFP, % of control 109; viability (ATP), % of control 75.8; inactive.
Against Gpt [SID363570430], the entry reads GFP, % of control 46.4; viability (ATP), % of control 81.1; inactive.
For Gpt [SID363579230] the deposit lists GFP, % of control 74.1; viability (ATP), % of control 72.7; inactive.
Depletion of Gpt [SID363583102] resulted in: GFP, % of control 78.1; viability (ATP), % of control 75.9; inactive.
With knock-down of 4932414N04Rik [SID363542377] the results were GFP, % of control 86.5; viability (ATP), % of control 65.3; inactive.
4932414N04Rik [SID363551868] scored GFP, % of control 92.2; viability (ATP), % of control 53.7; inactive.
For 4932414N04Rik [SID363559473], the values are GFP, % of control 89.6; viability (ATP), % of control 83.5; inactive.
Mex3a [SID363543998] scored GFP, % of control 55.6; viability (ATP), % of control 60.1; inactive.
For Mex3a [SID363551734], the values are GFP, % of control 89.6; viability (ATP), % of control 92.7; inactive.
Depletion of Mex3a [SID363559339] came out at: GFP, % of control 95.5; viability (ATP), % of control 70.1; inactive.
For Pon2 [SID363570244], the entry reads GFP, % of control 62.7; viability (ATP), % of control 72.6; inactive.
For Pon2 [SID363576580], the entry reads GFP, % of control 98.6; viability (ATP), % of control 97.1; inactive.
With knock-down of Pon2 [SID363579748] the results were GFP, % of control 54.7; viability (ATP), % of control 61.3; inactive.
After knock-down of Coq8b [SID363572735] the results were GFP, % of control 35.8; viability (ATP), % of control 40.6; inactive.
Against Coq8b [SID363578015], the values are GFP, % of control 69.5; viability (ATP), % of control 79.4; inactive.
For Coq8b [SID363582239] the deposit lists GFP, % of control 68.6; viability (ATP), % of control 145; inactive.
After knock-down of Prag1 [SID363544175], the record shows GFP, % of control 49.7; viability (ATP), % of control 22.7; inactive.
Prag1 [SID363550503] scored GFP, % of control 77.1; viability (ATP), % of control 71.3; inactive.
With knock-down of Prag1 [SID363557052], the record shows GFP, % of control 44.8; viability (ATP), % of control 28.2; inactive.
For Or4c105 [SID363554420], the entry reads GFP, % of control 103; viability (ATP), % of control 62.4; inactive.
Or4c105 [SID363567867] scored GFP, % of control 66; viability (ATP), % of control 76.8; inactive.
After knock-down of Or4c105 [SID363585224], the screen gave GFP, % of control 117; viability (ATP), % of control 88.3; inactive.
C4b [SID363553570] scored GFP, % of control 79.2; viability (ATP), % of control 59.1; inactive.
Against C4b [SID363561527] the deposit lists GFP, % of control 83.3; viability (ATP), % of control 71.1; inactive.
Against C4b [SID363565265] the deposit lists GFP, % of control 76; viability (ATP), % of control 63.1; inactive.
Eln [SID363572441] scored GFP, % of control 119; viability (ATP), % of control 113; inactive.
Against Eln [SID363574201], the values are GFP, % of control 62.8; viability (ATP), % of control 124; inactive.
With knock-down of Lmf1 [SID363543899], the record shows GFP, % of control 77.3; viability (ATP), % of control 70.5; inactive.
With knock-down of Lmf1 [SID363551635] the results were GFP, % of control 143; viability (ATP), % of control 97.7; active.
Knock-down of Lmf1 [SID363559240] resulted in: GFP, % of control 92.3; viability (ATP), % of control 62.4; inactive.
Knock-down of Meox1 [SID363569386] came out at: GFP, % of control 102; viability (ATP), % of control 102; inactive.
Meox1 [SID363577130] showed GFP, % of control 85.9; viability (ATP), % of control 95.9; inactive.
Depletion of Meox1 [SID363578538] came out at: GFP, % of control 74.2; viability (ATP), % of control 59.5; inactive.
Fastkd3 [SID363543331] showed GFP, % of control 103; viability (ATP), % of control 63.2; inactive.
Depletion of Fastkd3 [SID363552824] resulted in: GFP, % of control 56.5; viability (ATP), % of control 40.9; inactive.
With knock-down of Fastkd3 [SID363558672], the screen gave GFP, % of control 69.8; viability (ATP), % of control 71.5; inactive.
